Data as given in PMC5678585, “Screening a protein kinase inhibitor library against Plasmodium falciparum” (Malaria Journal, 2017).

Test system: Plasmodium falciparum 3D7
Test: microbe, parasite or virus in culture
Details: read-out: Percentage inhibition of the growth of Plasmodium falciparum
Description: Growth inhibition was quantified using a fluorescence assay utilizing the binding of SYBR Green I to double stranded DNA, which emits a fluorescent signal at 528 nm after excitation at 485 nm. The SYBR Green assay system was adapted to maximize robustness and to align with available automation systems. The Prestwick Library then used as a pilot screen to validate the performance of the optimized assay. […] Single point screens were carried out, and the potency of compounds of interest was determined in duplicate on two independent occasions. A 96-well [^3H]-Hypoxanthine incorporation assay was also developed as a secondary assay in order to validate key compounds from each hit series in an orthogonal platform.
All data were processed using IDBS ActivityBase. […] The formula used to calculate Z’ is 1-3×(StDev_high+StDev_low)/ABS(Mean_high-Mean_low) .
Two independent assays were run.

`CC(C)(C)CC(C)(C)c1ccc(OCCOCC[N+](C)(C)Cc2ccccc2)cc1` [Benzethonium chloride] gave an inhibition at 4 µM of 102.5 ± 0.7%.
